Source: the supplement of paper PMC6119338
± gives the standard deviation of the averaged measurements. The list shows a part of the results. Repeats are few or missing, and single values can be far off.

Each compound was assayed on Plasmodium berghei sporozoites (assay: residual sporozoite gliding motility relative to DMSO control; higher = less inhibition of motility). Conditions: 10 µM; incubation time 30 min.

Structure (SMILES)	residual sporozoite gliding motility [%]
COc1ccc(C(=O)NC(c2ccc(Cl)cc2Cl)c2cc(Cl)c3cccnc3c2O)cc1 (configuration not stated)	> 50
O=C(Nc1ccc(Cl)cc1)N1CCN(c2ccc3nncn3n2)CC1	> 50
CCN1CCN(c2cc(C)c3cc(NC(=O)c4ccc(OC)c(OC)c4)ccc3n2)CC1	> 50
COc1cc2cc(C(=O)Nc3ccccc3)c(N)nc2cc1OC	> 50
CCOc1ccc(-c2nonc2NC(=O)c2cccc(C)c2)cc1OCC	> 50
CC(C)(C)c1ccc2c(c1)CN(Cc1ccc(Cl)cc1)CO2	> 50
CCN(Cc1ccccc1)C1CCN(Cc2cc(Br)ccc2O)CC1	> 50
COc1ccc(C(=O)Nc2nonc2-c2ccc(OC)c(OC)c2)cc1Cl	> 50
O=C(Nc1ccc(N2CCN(Cc3ccccc3)CC2)cc1)c1cccs1	> 50
FC(F)(F)c1cccc(Nc2nc(-c3ccccc3)nc3ncccc23)c1	> 50
FC(F)(F)c1cccc(Nc2nc3ccccc3nc2Nc2cccc(C(F)(F)F)c2)c1	29.3 ± 5
O=C(Nc1ccc(-c2nc3ccccc3[nH]2)cc1)c1ccc(Cl)c(Cl)c1	> 50
O=C(NC1CCN(Cc2ccccc2)CC1)c1cc(C(=O)NC2CCN(Cc3ccccc3)CC2)cc(C(=O)NC2CCN(Cc3ccccc3)CC2)c1	> 50
CCOc1ccccc1CNC(=O)C1c2ccccc2C(=O)N(CC(C)C)C1c1cccs1 (configuration not stated)	> 50
CCC(=O)Nc1nnc(Cc2ccc(OC)c(OC)c2)s1	> 50
CCOC(=O)c1cnc2ccc(Cl)cc2c1NCCCN(C)C	> 50
CCOc1ccccc1CN1CCc2nc3cc(C(C)(C)C)nn3c(O)c2C1	> 50

Sorted by molar mass (largest number first): part of the list above.
Structure (SMILES)	residual sporozoite gliding motility [%]
O=C(Nc1ccc(Cl)cc1)N1CCN(c2ccc3nncn3n2)CC1	> 50
CCOC(=O)c1cnc2ccc(Cl)cc2c1NCCCN(C)C	> 50
COc1cc2cc(C(=O)Nc3ccccc3)c(N)nc2cc1OC	> 50
